# Reference: ChEMBL document CHEMBL4316593 (Eur J Med Chem, 2019)
# This continues a long series; more values of the same kind are listed elsewhere.
# What was measured:
# Type in all cases: cell-based
# Conditions in all cases: U-87MG ATCC
# [1] = Inhibition of RTK/PI3K/AKT/mTOR signaling in human U87 cells assessed as up regulation of KDELR3 gene expression at cytotoxic IC50 measured after 48 hrs relative to control
# [2] = Inhibition of RTK/PI3K/AKT/mTOR signaling in human U87 cells assessed as down regulation of HSPA6 gene expression at cytotoxic IC50 measured after 48 hrs relative to control
# [3] = Inhibition of RTK/PI3K/AKT/mTOR signaling in human U87 cells assessed as up regulation of serine/threonine kinase 11 interacting protein gene expression at cytotoxic IC50 measured after 48 hrs relative to control
# [4] = Inhibition of RTK/PI3K/AKT/mTOR signaling in human U87 cells assessed as down regulation of ITPKC gene expression at cytotoxic IC50 measured after 48 hrs relative to control
# [5] = Inhibition of RTK/PI3K/AKT/mTOR signaling in human U87 cells assessed as down regulation of RAB35 gene expression at cytotoxic IC50 measured after 48 hrs relative to control
# [6] = Inhibition of RTK/PI3K/AKT/mTOR signaling in human U87 cells assessed as up regulation of PLOD1 gene expression at cytotoxic IC50 measured after 48 hrs relative to control
# [7] = Inhibition of RTK/PI3K/AKT/mTOR signaling in human U87 cells assessed as down regulation of HEXB gene expression at cytotoxic IC50 measured after 48 hrs relative to control
# [8] = Inhibition of RTK/PI3K/AKT/mTOR signaling in human U87 cells assessed as up regulation of anoctamin 1 gene expression at cytotoxic IC50 measured after 48 hrs relative to control
# [9] = Inhibition of RTK/PI3K/AKT/mTOR signaling in human U87 cells assessed as down regulation of ASF1B gene expression at cytotoxic IC50 measured after 48 hrs relative to control
# [10] = Inhibition of RTK/PI3K/AKT/mTOR signaling in human U87 cells assessed as up regulation of methyl-CpG binding domain protein 6 gene expression at cytotoxic IC50 measured after 48 hrs relative to control
# [11] = Inhibition of RTK/PI3K/AKT/mTOR signaling in human U87 cells assessed as down regulation of CASC3 gene expression at cytotoxic IC50 measured after 48 hrs relative to control
# [12] = Inhibition of RTK/PI3K/AKT/mTOR signaling in human U87 cells assessed as down regulation of CPD gene expression at cytotoxic IC50 measured after 48 hrs relative to control
# [13] = Inhibition of RTK/PI3K/AKT/mTOR signaling in human U87 cells assessed as down regulation of TESK1 gene expression at cytotoxic IC50 measured after 48 hrs relative to control
# [14] = Inhibition of RTK/PI3K/AKT/mTOR signaling in human U87 cells assessed as down regulation of BCL10 gene expression at cytotoxic IC50 measured after 48 hrs relative to control
# [15] = Inhibition of RTK/PI3K/AKT/mTOR signaling in human U87 cells assessed as down regulation of VMP1 gene expression at cytotoxic IC50 measured after 48 hrs relative to control
# [16] = Inhibition of RTK/PI3K/AKT/mTOR signaling in human U87 cells assessed as up regulation of NDC1 transmembrane nucleoporin gene expression at cytotoxic IC50 measured after 48 hrs relative to control
# [17] = Inhibition of RTK/PI3K/AKT/mTOR signaling in human U87 cells assessed as up regulation of hexosaminidase D gene expression at cytotoxic IC50 measured after 48 hrs relative to control
# [18] = Inhibition of RTK/PI3K/AKT/mTOR signaling in human U87 cells assessed as down regulation of WDR37 gene expression at cytotoxic IC50 measured after 48 hrs relative to control
# [19] = Inhibition of RTK/PI3K/AKT/mTOR signaling in human U87 cells assessed as up regulation of G protein-coupled receptor 155 gene expression at cytotoxic IC50 measured after 48 hrs relative to control
# [20] = Inhibition of RTK/PI3K/AKT/mTOR signaling in human U87 cells assessed as down regulation of IL17RA gene expression at cytotoxic IC50 measured after 48 hrs relative to control
# [21] = Inhibition of RTK/PI3K/AKT/mTOR signaling in human U87 cells assessed as up regulation of ATP/GTP binding protein like 5 gene expression at cytotoxic IC50 measured after 48 hrs relative to control
# [22] = Inhibition of RTK/PI3K/AKT/mTOR signaling in human U87 cells assessed as down regulation of HIST1H2BC gene expression at cytotoxic IC50 measured after 48 hrs relative to control
# [23] = Inhibition of RTK/PI3K/AKT/mTOR signaling in human U87 cells assessed as down regulation of SAE1 gene expression at cytotoxic IC50 measured after 48 hrs relative to control
# [24] = Inhibition of RTK/PI3K/AKT/mTOR signaling in human U87 cells assessed as up regulation of BNIP3L gene expression at cytotoxic IC50 measured after 48 hrs relative to control
# [25] = Inhibition of RTK/PI3K/AKT/mTOR signaling in human U87 cells assessed as up regulation of ANXA3 gene expression at cytotoxic IC50 measured after 48 hrs relative to control
# [26] = Inhibition of RTK/PI3K/AKT/mTOR signaling in human U87 cells assessed as up regulation of USP6NL gene expression at cytotoxic IC50 measured after 48 hrs relative to control
# [27] = Inhibition of RTK/PI3K/AKT/mTOR signaling in human U87 cells assessed as up regulation of methylenetetrahydrofolate dehydrogenase (NADP+ dependent) 1-like gene expression at cytotoxic IC50 measured after 48 hrs relative to control
# [28] = Inhibition of RTK/PI3K/AKT/mTOR signaling in human U87 cells assessed as up regulation of CNTD2 gene expression at cytotoxic IC50 measured after 48 hrs relative to control
# [29] = Inhibition of RTK/PI3K/AKT/mTOR signaling in human U87 cells assessed as down regulation of PDHX gene expression at cytotoxic IC50 measured after 48 hrs relative to control
# [30] = Inhibition of RTK/PI3K/AKT/mTOR signaling in human U87 cells assessed as up regulation of signal peptidase complex subunit 3 gene expression at cytotoxic IC50 measured after 48 hrs relative to control
# [31] = Inhibition of RTK/PI3K/AKT/mTOR signaling in human U87 cells assessed as up regulation of solute carrier family 17 member 5 gene expression at cytotoxic IC50 measured after 48 hrs relative to control
# [32] = Inhibition of RTK/PI3K/AKT/mTOR signaling in human U87 cells assessed as down regulation of HAPLN3 gene expression at cytotoxic IC50 measured after 48 hrs relative to control
compound,measurement,setting,value
CC(=O)C(=NNc1ccccc1C#N)C(C)=O,log2FC,[1],2.04
same,log2FC,[2],-8.96
same,log2FC,[3],1.04
same,log2FC,[4],-1.15
same,log2FC,[5],-0.5
same,log2FC,[6],1.83
same,log2FC,[7],-0.975
same,log2FC,[8],1.35
same,log2FC,[9],-1.5
same,log2FC,[10],1.09
same,log2FC,[11],-0.398
same,log2FC,[12],-0.623
same,log2FC,[13],-1.03
same,log2FC,[14],-0.86
same,log2FC,[15],-1.33
same,log2FC,[16],0.885
same,log2FC,[17],1.48
same,log2FC,[18],-1.2
same,log2FC,[19],1.26
same,log2FC,[20],-0.53
same,log2FC,[21],0.656
same,log2FC,[22],-3.93
same,log2FC,[23],-0.517
same,log2FC,[24],1.78
same,log2FC,[25],0.599
same,log2FC,[26],0.54
same,log2FC,[27],0.935
same,log2FC,[28],2.25
same,log2FC,[29],-0.69
same,log2FC,[30],0.814
same,log2FC,[31],1.26
same,log2FC,[32],-1.09
